{
  "source": "PubChem BioAssay AID504834",
  "about": "(National Center for Advancing Translational Sciences (NCATS), 2011)",
  "note": "The whole screen tested about 320,000 compounds, of which about 22,000 (6.9%) were called active. Inconclusive means that the source gave no clear call. Such entries were picked first, then a sample of the others. Calls follow the shape of the dose curve; as a rule, active = well fitted inhibition curve with a large enough effect; inconclusive = small, poorly fitted or top-dose-only effect, or another doubt; inactive = no such curve, though single readings can be large or run the other way. Potencies beside an inconclusive call are fits to weak or partial responses and may not hold up. % is scaled to controls: 0 for no effect and ±100 for the full control effect; potency is read from the fitted curve at half-maximal effect.",
  "data": [
    {"assay": "Primary qHTS for delayed death inhibitors of the malarial parasite plastid, 96 hour incubation", "conditions": "P. falciparum luciferase reporter growth; series mostly up to 28.7 µM; activity change, negative = inhibition: at the top concentration", "how_it_was_run": "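P. falciparum expressing integrated firefly luciferase grown in erythrocytes (2% hematocrit, 0.05% parasitemia final) with compounds for 96 hours at 37 C, 5% CO2. Growth inhibition read as loss of luminescence after adding luciferase detection reagent.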", "values": [
      {"smiles": "O=C(CN1CCN(c2ccc(O)cc2)CC1)Nc1ccc(-c2ccccc2)cc1", "Potency": "inconclusive: 10.4 µM [inhibitor, single point]"},
      {"smiles": "Nc1nc(Cn2nnc(-c3ccccc3F)n2)nc(N2CCOCC2)n1", "Potency": "inconclusive: 13.1 µM [inhibitor, single point]"},
      {"smiles": "COc1ccc(NC(=O)CSc2nc3n[nH]c(C)c3c(=N)n2-c2ccc(Cl)c(C)c2)cc1OC", "Potency": "inconclusive: 14.7 µM [inhibitor, single point]"},
      {"smiles": "CCOC(=O)c1c(NC(=O)c2cccnc2)sc(C(C)=O)c1C", "Potency": "inconclusive: 11.7 µM [inhibitor, single point]"},
      {"smiles": "COc1cccc(NC(=O)Nc2nnc(CC(=O)Nc3ccccc3)s2)c1", "Potency": "inconclusive: 13.1 µM [inhibitor, single point]"},
      {"smiles": "COc1ccc(CCNC(=O)c2ccc(COc3ccccc3OC)o2)cc1", "Potency": "inconclusive: 4.65 µM [inhibitor, partial curve]"},
      {"smiles": "CCOC(=O)c1c(C(=O)OCC)c(C)n(Cc2cc(OC)c(OC)c(OC)c2)c1C", "Potency": "active: 11.7 µM"},
      {"smiles": "N#Cc1ccc(Cl)cc1NC(=O)COC(=O)c1ccc(S(=O)(=O)N2CCCC2)cc1", "activity change, negative = inhibition": "inactive: 46.8%"},
      {"smiles": "O=C(CNC(=O)c1ccccc1)OC1CCCCC1", "activity change, negative = inhibition": "inactive: 16.6%"},
      {"smiles": "CC(=O)Oc1ccc(/C=N/NC(=O)C2CCCN2S(=O)(=O)c2ccc(Cl)cc2)cc1", "note": "(stereo not drawn)", "activity change, negative = inhibition": "inactive: -25.2%"},
      {"smiles": "Cc1nnc(N(C)C(=O)c2ccncc2)s1", "activity change, negative = inhibition": "inactive: 16.4%"},
      {"smiles": "O=C(c1ccc(-n2cncn2)c([N+](=O)[O-])c1)N1CCN(S(=O)(=O)c2ccc(Cl)cc2)CC1", "Potency": "active: 4.65 µM"},
      {"smiles": "Cc1cc(-c2ccc(N=Nc3ccc4c(S(=O)(=O)O)cc(S(=O)(=O)O)c(N)c4c3O)c(C)c2)ccc1N=Nc1ccc2c(S(=O)(=O)O)cc(S(=O)(=O)O)c(N)c2c1O", "Potency": "inconclusive: 8.49 µM [inhibitor, partial curve, poor fit]"},
      {"smiles": "COc1cc(CNc2ccccc2Oc2cc(=O)n(C)c(=O)n2C)cc(OC)c1OC", "Potency": "inconclusive: 4.15 µM [inhibitor, partial curve, poor fit]"},
      {"smiles": "Cc1cccn2c(=O)c3cc(C(=O)NCc4ccc(F)cc4)c(=N)n(CC4CCCO4)c3nc12", "note": "(stereo not drawn)", "Potency": "active: 2.94 µM"},
      {"smiles": "NC(=O)c1oc2ccccc2c1NC(=O)Cc1ccccc1", "Potency": "inconclusive: 18.5 µM [inhibitor, single point]"},
      {"smiles": "Cc1ccc(/C=N/NC(=O)c2nnn(-c3nonc3N)c2C)o1", "Potency": "inconclusive: 10.4 µM [inhibitor, partial curve, poor fit]"},
      {"smiles": "CCN(C(=O)Cc1ccc(NC2=NC3CS(=O)(=O)CC3S2)cc1)c1ccccc1", "note": "(stereo not drawn)", "Potency": "inconclusive: 11.7 µM [inhibitor, single point]"}
    ]}
  ]
}
